Measurements reported in PMC7819943, “Rice protein-binding microarrays: a tool to detect cis-acting elements near promoter regions in rice”.
The list shows a part of the results.

Target: T1, OsSMF1 (Oryza sativa, UniProt Q6ZLB0 1-436)
T1 sequence: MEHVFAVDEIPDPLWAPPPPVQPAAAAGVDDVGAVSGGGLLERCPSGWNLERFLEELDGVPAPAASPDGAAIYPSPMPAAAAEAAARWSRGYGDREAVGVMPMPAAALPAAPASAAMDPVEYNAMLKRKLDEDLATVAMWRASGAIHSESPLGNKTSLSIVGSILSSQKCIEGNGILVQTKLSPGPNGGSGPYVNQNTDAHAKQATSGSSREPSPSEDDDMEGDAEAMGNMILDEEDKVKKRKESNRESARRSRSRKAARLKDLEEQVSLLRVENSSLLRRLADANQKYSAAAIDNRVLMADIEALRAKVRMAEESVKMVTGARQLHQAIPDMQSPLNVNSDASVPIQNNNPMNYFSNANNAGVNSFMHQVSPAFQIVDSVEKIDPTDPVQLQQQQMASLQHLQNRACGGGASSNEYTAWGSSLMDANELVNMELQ
Test: protein-binding microarray (RPBM); PBS, 2% BSA, 51.3 ng/ul salmon testes DNA, 50 uM zinc acetate, 200 nM TF, 25 C, 1 h; high values mean tight binding
Details: protein: recombinant; tags: N-terminal polyhistidine and DsRed monomer fusion (pET32a); chain copies: 2; label: CyDye5-dUTP incorporated in the synthesized complementary strand; 3' TTTTT single-stranded linker to array surface; dsDNA, one strand shown
How it was run: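 Transcription factors were each fused at the N-terminus to a polyhistidine tag plus DsRed and expressed in E. coli BL21-CodonPlus before Ni–NTA purification. Binding to a double-stranded custom Agilent array was carried out with 200 nM protein at 25 °C for 1 h in PBS, 2% BSA, salmon testes DNA and 50 µM zinc acetate. The binding signal is per-feature fluorescence intensity, in arbitrary units, on an Axon 4000B scanner.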

Row | Sequence | binding signal
1 | TACCATGTATATCTTGTTGCATAAATAGATCTTGTCATCACGGAGTCACCTAGTGCAG | 4330 fluorescence intensity (a.u.)
2 | TCCCGTGCAGCCGTGGCAGCCGCGCGCTGCTCGAGTCCGGCGGAGTCACCTAGTGCAG | 4470 fluorescence intensity (a.u.)
3 | CACGTAGCCGTCATGTCAGCGAAACCACCCTCTAAAACTCCGGAGTCACCTAGTGCAG | 3220 fluorescence intensity (a.u.)
4 | TCTACACACAGCCACGTTGAGGGGCTGGTGAGCGCGCGCTCGGAGTCACCTAGTGCAG | 14100 fluorescence intensity (a.u.)
5 | GATGGTCACGCGTGGACGTCAGCTTGGGAGCGAATCCGTTCGGAGTCACCTAGTGCAG | 5170 fluorescence intensity (a.u.)
6 | GCCAAAGGTTGGTAATGCCCATGCTCAATTTGACACAATTCGGAGTCACCTAGTGCAG | 30400 fluorescence intensity (a.u.)
7 | GAATTGTGTCGGCGACTCGGCGTCACGGCCGCACTGCTTTCGGAGTCACCTAGTGCAG | 3290 fluorescence intensity (a.u.)
8 | AGACACACATGCCACCGGAAAGGGTTCTTTTGTTGTTGCTCGGAGTCACCTAGTGCAG | 3220 fluorescence intensity (a.u.)
9 | CGGCCCATAGCTCGTCGCGTCACGCCGACCGTTTGGTTCGCGGAGTCACCTAGTGCAG | 7480 fluorescence intensity (a.u.)
10 | GCGCCGCCTTCCGCCGCATCGTCACCAGCCGCTCCTTCCTCGGAGTCACCTAGTGCAG | 3860 fluorescence intensity (a.u.)
11 | TTTGTCCTGCGTGACGGCTGAGTCAGCATAGACCCACGTGCGGAGTCACCTAGTGCAG | 29800 fluorescence intensity (a.u.)
12 | AGAGAGAGGGACGAAAGAAAGAAGAGAGGAGGCAATGACACGGAGTCACCTAGTGCAG | 29900 fluorescence intensity (a.u.)
13 | GCCACAAGTCCGCAATAAACCACCACACACCACGTACCGGCGGAGTCACCTAGTGCAG | 3700 fluorescence intensity (a.u.)
14 | CGGCGCTGGGACCTGGCGGCGTGGTGGCCCTGCGCGGGAGCGGAGTCACCTAGTGCAG | 27800 fluorescence intensity (a.u.)
15 | AGGGCGCTCGGCTCGGCGCGGCTCACGCGCACGGGTGCGCCGGAGTCACCTAGTGCAG | 3550 fluorescence intensity (a.u.)
16 | GCATTCAGTATAACTTTCTAATACAATACCTATTGCCATTCGGAGTCACCTAGTGCAG | 22400 fluorescence intensity (a.u.)
17 | CATTAATTCCATCATTGGCTTTGTGCCCATGTTTGTATGCCGGAGTCACCTAGTGCAG | 7620 fluorescence intensity (a.u.)
18 | GTATTCAAATACCGTATATCATAACTTCATAAGAGAACAGCGGAGTCACCTAGTGCAG | 29300 fluorescence intensity (a.u.)
19 | CCCAATGAGGTGTGCAGCGTAGTTTGGACTTTTCATTTGGCGGAGTCACCTAGTGCAG | 3370 fluorescence intensity (a.u.)
20 | TTGGTACTATACCTGTAGTTTTGACATATATTTGCTACTTCGGAGTCACCTAGTGCAG | 3140 fluorescence intensity (a.u.)
21 | TAAAGTAGTTTTACACGTAAATCAGATGCTGACGTCAGCGCGGAGTCACCTAGTGCAG | 48600 fluorescence intensity (a.u.)

3 records picked at random from the list so far:
Row | Sequence | binding signal
19 | CCCAATGAGGTGTGCAGCGTAGTTTGGACTTTTCATTTGGCGGAGTCACCTAGTGCAG | 3370 fluorescence intensity (a.u.)
21 | TAAAGTAGTTTTACACGTAAATCAGATGCTGACGTCAGCGCGGAGTCACCTAGTGCAG | 48600 fluorescence intensity (a.u.)
4 | TCTACACACAGCCACGTTGAGGGGCTGGTGAGCGCGCGCTCGGAGTCACCTAGTGCAG | 14100 fluorescence intensity (a.u.)

Further entries

Row | Sequence | binding signal
22 | GTGCGGATGGGGAGGTGTGGTGGAAGGGTGGACAGTGGAGCGGAGTCACCTAGTGCAG | 3410 fluorescence intensity (a.u.)
23 | TAAGTTTCCGTTTTGGATCTTGCGTGGGTGCGAGGAATCGCGGAGTCACCTAGTGCAG | 3430 fluorescence intensity (a.u.)
24 | AAACTGCACGTGGACCTGAAGCATTTTCTCCTTCGTTTACCGGAGTCACCTAGTGCAG | 4610 fluorescence intensity (a.u.)
25 | AAGGGAATCAGAGGAAGCAGTAATGACTAATGACCAATGTCGGAGTCACCTAGTGCAG | 3560 fluorescence intensity (a.u.)
26 | GTTTGATTAGGGTAGATAGAGAGAGAGGGGTTGGGTTTGGCGGAGTCACCTAGTGCAG | 3390 fluorescence intensity (a.u.)
27 | TTAGATGAAACCACGATTTGTCAAAATGCATCCAAAACTTCGGAGTCACCTAGTGCAG | 43100 fluorescence intensity (a.u.)
28 | TTAAACGGGCTTTAAGGTAGAAAGTACACGTGGACTGCAACGGAGTCACCTAGTGCAG | 10100 fluorescence intensity (a.u.)
29 | TCCACTGCGCACTGTCACCTTCCTATATAAACGGCCACCCCGGAGTCACCTAGTGCAG | 3170 fluorescence intensity (a.u.)
30 | CCCTCCTTGTCCCGCCTGGTGACGATTTCCATGGGCATTGCGGAGTCACCTAGTGCAG | 3760 fluorescence intensity (a.u.)
31 | CGCGCGCGCGTGGCAGCTGACGTGGCGAGTACTGGTGGGGCGGAGTCACCTAGTGCAG | 30400 fluorescence intensity (a.u.)
32 | AATTTACAAGATCACACCAGCATCGTCAGAGGTTAACCTACGGAGTCACCTAGTGCAG | 3680 fluorescence intensity (a.u.)
33 | AAGCTCTCATGTCAGACAGTCAGCGGCTGAAGCTTTGTGACGGAGTCACCTAGTGCAG | 5500 fluorescence intensity (a.u.)
34 | CATTTAGGATCTTATGTGAGTCAGATGGCATATTTCTTCCCGGAGTCACCTAGTGCAG | 3770 fluorescence intensity (a.u.)
35 | CCTCTAGAACTCCATGCACGTTCGGTTCTGTCCCTAGCACCGGAGTCACCTAGTGCAG | 29300 fluorescence intensity (a.u.)
36 | CAAACTTTGAGAGGAAACATAATTTAATTAGTTGATTAAGCGGAGTCACCTAGTGCAG | 3570 fluorescence intensity (a.u.)
37 | ACAAGCTCGGTGTCTTCTTGAACGGTCCGCGTCACCGGCGCGGAGTCACCTAGTGCAG | 8870 fluorescence intensity (a.u.)
38 | AGAGCCAACTGGTCGATCTCCAGTGAGTCAGTGACCTAATCGGAGTCACCTAGTGCAG | 4470 fluorescence intensity (a.u.)
39 | ACTTGACGAGTCCGACCACTGGCGTCAGTTGCGCCGCCTGCGGAGTCACCTAGTGCAG | 3490 fluorescence intensity (a.u.)
40 | AGCAGTCAAAGGAGTGGCCGAAGTGGGGACCATCTTCCTCCGGAGTCACCTAGTGCAG | 3210 fluorescence intensity (a.u.)
41 | AAGTTGTGCAAGTACATTGACGTGGGCACAGTGGCGTCCACGGAGTCACCTAGTGCAG | 6800 fluorescence intensity (a.u.)
42 | GAGACGACGAGTCGGACATGACACGTTCAGGCTCATTTCCCGGAGTCACCTAGTGCAG | 3200 fluorescence intensity (a.u.)
